According to patent US20070003509A1, “Skin treatment composition” (priority 2005, published 2007):
For at least one compound, name, drawing or mass did not settle the structure.

What was measured:
[1] = system: fibrillin-rich microfibrils proximal to the dermal-epidermal junction (DEJ); assay: Patch-test protocol, immunohistochemistry of fibrillin-rich microfibrils in photoaged skin in vivo; parameters: species or system human
Description: (§1) It was done by identification of Procollagen-I and Fibrillin upregulation and matrix metalloprotease-1 (MMP-1) down-regulation in Skin In Vivo. Experiments were done following topical Retinoic Acid (RA) treatment for comparative purposes and analysis of the effects of salicyloyl-phytosphingosine and phytosphingosine compared with retinoic acid with respect to the expression of dermal markers in vivo. See: Watson R E B, Craven N M, Kang S, Jones C J P, Kielty C M, Griffiths C E M. A short term screening protocol, using fibrillin-1 as a […] molecule for photoageing repair agents. J Invest Dermatol, 116: 672-678, 2001, for published methodology.
(§2) Five healthy, but clinically photoaged volunteers, were recruited (age range 54-71 years). Test substances were applied separately under standard 6 mm diameter Finn chambers to the extensor aspect of the forearm: these were vehicle base (15 μl/chamber), 0.2% PS-SLC (15 μl/chamber), 0.05% PS-SLC (15 μl/chamber), 0.2% phytosphingosine (15 μl/chamber) and 0.025% all-tans RA (Retin-A® cream, Janssen-Cilag Ltd., 15 μl/chamber). Formulations were applied to clean skin on days 1 and 4 of the assay. All-trans RA was applied to an untreated site on day 4. On day 8, Finn chambers were removed and 3 mm punch biopsies were obtained under 1% lignocaine anaesthesia from each of the test site. Biopsies were embedded in OCT compound (Tissue-Tek®, Miles, Ind., USA) and snap frozen in liquid nitrogen. Biopsy sites were sutured with 1×4/o ethilon and subjects instructed to return between 7-10 days for suture removal. Frozen sections were p at a thickness of 10 μm (OTF cryostat, Bright Instruments Ltd.) and mounted onto gelatin-coated slides prior to histological analysis. A number of extracellular matrix (ECM) molecules known to be altered in photoaged skin were assayed by immunohistochemistry to detail the potential effects of the novel formulations. The primary marker of outcome was the distribution of fibrillin-rich microfibrils proximal to the dermal-epidermal junction (DEJ). Also assessed was the distribution of procollagen-1 within the dermis.
Matrix metalloprotease-1 (MMP-1) levels were also assessed. Whilst the fibrillin and procollagen-1 should increase for an antiaging active levels of MMP-1 should decrease for an antiaging active, i.e., increased synthesis of dermal structural proteins together with reduced levels of the proteases that degrade them. For each analysis, the marker was identified in each of three sections (i.e., 3 sections/treatment/volunteer). […]
(§3) Sections were randomised, blinded and examined on a Nikon OPTIPHOT microscope (Tokyo, Japan). For assessment of ECM and cornified envelope components, the degree of immunostaining was assessed on a 5 point semi-quantitative scale where 0=no staining and 4=maximal staining. […]

[2] = system: pro-collagen I in the papillary dermis; assay: Patch-test protocol, immunohistochemistry of pro-collagen I in photoaged skin in vivo; parameters: species or system human
Description: as §1
as §2, with “Frozen sections were p at a thickness of 10 μm (OTF cryostat, Bright Instruments Ltd.) and mounted onto gelatin-coated slides prior to histological analysis. A number of extracellular matrix (ECM) molecules known to be altered in photoaged skin were assayed by immunohistochemistry to detail the potential effects of the novel formulations. The primary marker of outcome was the distribution of fibrillin-rich microfibrils proximal to the dermal-epidermal junction (DEJ).” left out
(§4) Matrix metalloprotease-1 (MMP-1) levels were also assessed. […]
as §3

[3] = system: Matrix metalloprotease-1 (MMP-1); assay: Patch-test protocol, immunohistochemistry of MMP-1 in photoaged skin in vivo; parameters: species or system human; settings: for MMP-1 levels (in words): vs vehicle
Description: as §1
as §2, with “Frozen sections were p at a thickness of 10 μm (OTF cryostat, Bright Instruments Ltd.) and mounted onto gelatin-coated slides prior to histological analysis. A number of extracellular matrix (ECM) molecules known to be altered in photoaged skin were assayed by immunohistochemistry to detail the potential effects of the novel formulations. The primary marker of outcome was the distribution of fibrillin-rich microfibrils proximal to the dermal-epidermal junction (DEJ).” left out
as §4, §3

cellulite (thigh) = assay: Clinical trial of anticellulite activity by topical application; assay type: in vivo, human; settings: 0.2% formulation of Example 2, two times a day for 2 months
Description: Six female subjects were selected for a clinical trial of anticellulite activity of salicyloyl-phytoshingosine by topical application.
The scale ranged from 0 to 4, being 0=No cellulite; 1=Small bumps or depressions; 2=Striations and bumps; 3=Pronounced lumpiness of the skin and striations; 4=All of the above plus hard sub-surface nodules. All tested volunteers had cellulite with grades 1 and 2. The subjects were divided in 2 groups of 3 individuals
Group 1 was instructed to apply a formulation described in Example 2 containing 0.2% salicloyl-phytosphingosine on the right thigh and the vehicle formulation without salicyloyl-phytoshingosine in the left thigh Group 2 was instructed to apply the formulations vice versa. The subjects were taught to carry out the application two times a day, at morning and at night for a period of 2 months. Afterwards the cellulite condition was evaluated by comparison of the thigh diameter, the clinical degrading and the subjective improvement.

[4] = 0.2% topical occluded, vs vehicle
[5] = topical occluded application, concentration not given

| SMILES | Fibrillin-1 deposition proximal to the DEJ (in words) ([1]; 0.05% topical occluded, vs vehicle, 80% confidence level) | Fibrillin-1 deposition proximal to the DEJ (in words) [1, 4] | Fibrillin-rich microfibrillar network proximal to the DEJ of photoaged skin (study summary, in words) [1, 5] | pCI content in the papillary dermis (in words) [2, 4] | Effects on procollagen I in the papillary dermis (study summary, in words) [2, 5] | MMP-1 levels (in words) ([3]; 0.05% topical occluded, 95% confidence level) | MMP-1 levels (in words) ([3]; 0.2% topical occluded) | MMP-1 levels (study summary, in words) [3, 5] | Cellulite condition (in words) (cellulite (thigh)) | Fibrillin-1 deposition proximal to the DEJ (in words) ([1]; 0.025% all-trans RA, occluded) | Deposition of pCI proximal to the DEJ (in words) ([2]; 0.025% all-trans RA, 4-day occluded application) |
| --- | --- | --- | --- | --- | --- | --- | --- | --- | --- | --- | --- |
| CCCCCCCCCCCCCC[C@@H](O)[C@@H](O)[C@H](CO)NC(=O)c1ccccc1O [PS-SLC, salicyloyl-phytosphingosine] | significant induction of fibrillin expression | significantly increased fibrillin-1 deposition | restores | significantly increased | beneficial effects | decreased MMP-1 levels significantly | decreased MMP-1 levels significantly | decreased MMP-1 levels significantly | effectively ameliorated the cellulite condition |  |  |
| CC1=C(/C=C/C(C)=C/C=C/C(C)=C/C(=O)O)C(C)(C)CCC1 [RA, retinoic acid, reference compound] |  |  |  |  |  |  |  |  |  | produced deposition of fibrillin-1 | little effect |
